The campaign covered roughly 410,000 compounds. About 18,000 (4.4%) were called active. The shares of active, inactive and inconclusive entries below differ from those in the screen. No stated cut-off is given here; in the data, active means activity change below about -60%; inconclusive means no clear call, values can overlap the other calls; inactive means above about -39%.
Test: qHTS Assay for inhibitors of the human cytomegalovirus (HCMV)
Conditions: HFF cells, HCMV-luciferase reporter, 72 h; at 57.5 µM; active compounds read low
Summary of the method: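 Two-dose cell screen: HFF monolayers treated with compounds and infected with luciferase-expressing HCMV at 1 PFU/cell, 72 h at 37C, then lysed for luciferase measurement.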
On the % scale 0 is the no-effect control and ±100 the full control effect.

SMILES | activity change, negative = inhibition
COc1ccc(NC(=O)c2cc(S(=O)(=O)N3CCCC3)oc2C)cc1 | active: -64.9%
CCc1ccccc1NC(=S)/N=C(\N)Nc1nc(C)c2cc(C)ccc2n1 | inconclusive: -44%
CCCc1nnc2c(N(C)S(=O)(=O)c3ccc(C)cc3)nc3ccccc3n12 | active: -69.4%
Cc1ccc(NC(=O)CCS(=O)(=O)c2cc3[nH]c(=O)c(=O)[nH]c3cc2C)cc1 | inconclusive: -42.3%
O=C(Nc1cccc(Cl)c1)c1ccc2c(c1)SC1=NS(=O)(=O)CCN12 | active: -79%
COc1ccc(S(=O)(=O)N(CCCN2CCCC2=O)Cc2cc3c(C)cc(C)cc3[nH]c2=O)cc1 | inconclusive: -43.5%
O=C(N/N=C/c1cccc2ccccc12)c1cc2ccccc2o1 | inconclusive: -46.6%
COC(=O)c1ccc(OCC2c3cc(OC)c(OC)cc3CCN2C(=O)Cc2ccc(OC)c(OC)c2)cc1 (centres undefined) | inactive: -0.75%
CN1C(=O)C(=Cc2sc(=O)n(-c3ccccc3)c2N(C)C)C(=O)N(C)C1=O | active: -60.1%
Cn1nnnc1SCCCNCc1cc(Cl)ccc1OCc1ccccc1 | inconclusive: -45.3%
COc1ccc(OCCCn2c(C)nc3cc(C)c(C)cc32)cc1 | inconclusive: -42.5%
CCOC(=O)c1c(NC(=O)COc2cccc3c2CCN(CC)C3=O)sc2c1CCC2 | active: -80%
CCOC(=O)c1sc(NC(=O)Nc2ccc(Cl)cc2)cc1C | inconclusive: -41.1%
Cn1c(CNC(=O)CNS(=O)(=O)c2ccc(Cl)cc2)cc(=O)n(C)c1=O | inactive: -10.7%
COc1ccc(NC(=O)COC(=O)C2CCN(S(=O)(=O)c3ccccc3)CC2)cc1Cl | inactive: -4.5%
CCCOc1nc2ccccc2cc1/C=C/C(=O)O | inconclusive: -41.9%
CCC(C)c1ccccc1NC(=O)COC(=O)c1ccc2[nH]c3c(c2c1)CCCC3 (centres undefined) | active: -99.8%
CC(C)CC(=O)N1CCN(S(=O)(=O)c2ccc(F)cc2)CC1 | inconclusive: -42.5%
COc1cccc(-c2csc(N3CCN(C(=O)Nc4ccc(F)cc4)CC3)n2)c1 | inconclusive: -41.4%
N#CCSc1nc2c(c(=O)n1Cc1ccco1)C1(CCCC1)Cc1ccccc1-2 | inconclusive: -48.9%
Cc1nnc2n1N=C(c1ccc3c(c1)NC(=O)CO3)CS2 | inactive: 58.6%
O=C(CCl)N=c1sccn1Cc1cccc2ccccc12 | active: -100%
Cc1ccc(-n2ncc3c(NCc4ccccc4)ncnc32)cc1C | inactive: 26.9%

A run of entries from the list above, as a working copy:
SMILES | activity change, negative = inhibition
COc1cccc(-c2csc(N3CCN(C(=O)Nc4ccc(F)cc4)CC3)n2)c1 | inconclusive: -41.4%
N#CCSc1nc2c(c(=O)n1Cc1ccco1)C1(CCCC1)Cc1ccccc1-2 | inconclusive: -48.9%

From PubChem BioAssay AID1259415 (National Center for Advancing Translational Sciences (NCATS), 2018)
